This note sets out measurements from article PMC10893103, “Cyclodextrin-Enabled Enantioselective Complexation Study of Cathinone Analogs” (Molecules, 2024).

Data set [1] can be described thus: Affinity capillary electrophoresis (ACE), pH 7.4. Particulars: 30 mM phosphate buffer pH 7.4; at the optimal CD concentration printed in brackets beside the value. The method in brief:
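Mobility-shift ACE of cathinone analogues with cyclodextrins (0.25–20 mM in BGE) in 30 mM phosphate pH 7.4, 25 °C, fused-silica capillary, 15 kV, UV 215 nm, DMSO as EOF marker. Mobilities obtained by HVL peak fitting; complex stability constants corrected for viscosity and ionic strength.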

The nature of data set [2]: Chiral CE enantioseparation screening, pH 4.5.
A short description of data set [3]: Chiral CE enantioseparation screening, pH 4.5. The source holds these as a separate data set.
Data set [4] in a line: Chiral CE enantioseparation screening, pH 4.5. This is another data set of the same source.
Data set [5] can be described thus: Chiral CE enantioseparation screening, pH 4.5. The source holds these as a separate data set.
A short description of data set [6]: Chiral CE enantioseparation screening, pH 4.5. This is another data set of the same source.
Where [7] appears, read: 20 mM acetate buffer pH 4.5, CD 1 mM.
Setting [8] is: 20 mM acetate buffer pH 4.5, CD 5 mM.
[9] abbreviates: 20 mM acetate buffer pH 4.5, CD 10 mM.
[10] abbreviates: 20 mM acetate buffer pH 4.5, CD 1-5-10 mM.

With carboxyethylated-β-CD [CE-β-CD], the “MDPV maximal enantioresolution Rs” value in data set [1] is given as 1.6. In addition, in data set [1], the “Mephedrone maximal enantioresolution Rs” value is given as 0.8. Also, the “Enantioseparation (Rs) of Flephedrone” value in data set [2] (setting [7]), in data set [2] (setting [8]) and in data set [2] (setting [9]) was 0 each time. Further, the results for the “Enantioseparation (Rs) of Mephedrone” value in data set [3] (setting [7]), in data set [3] (setting [8]) and in data set [3] (setting [9]) were 0.1, 0 and 0.2, respectively. For the same compound, the “Enantioseparation (Rs) of 4-MEC” value was found to be 0.2 in data set [4] (setting [7]), 0 in data set [4] (setting [8]) and 0 in data set [4] (setting [9]). Besides, the “Enantioseparation (Rs) of Butylone” value in data set [5] (setting [7]), in data set [5] (setting [8]) and in data set [5] (setting [9]) was 0 in each case. Also, the “Enantioseparation (Rs) of MDPV” value in data set [6] (setting [7]) worked out at 0; in data set [6] (setting [8]) it was 1.5; in data set [6] (setting [9]) it was 1.1.

Turning to carboxymethylated-β-CD [CM-β-CD], the “4-MEC maximal enantioresolution Rs” value in data set [1] is 0.6. Also, the “Butylone maximal enantioresolution Rs” value in data set [1] was determined as 0.4. For the same compound, the “Flephedrone maximal enantioresolution Rs” value in data set [1] is 1.3. Moreover, the “MDPV maximal enantioresolution Rs” value in data set [1] was determined as 3.3. For the same compound, in data set [1], the “Mephedrone maximal enantioresolution Rs” value is on record as 0.7. The figures for the “Enantioseparation (Rs) of Flephedrone” value in data set [2] (setting [7]), in data set [2] (setting [8]) and in data set [2] (setting [9]) were 0.4, 0.8 and 0.8, respectively. The “Enantioseparation (Rs) of Mephedrone” value in data set [3] (setting [7]) worked out at 0; in data set [3] (setting [8]), 0.1; in data set [3] (setting [9]) it was 0.4. Further, the results for the “Enantioseparation (Rs) of 4-MEC” value in data set [4] (setting [7]), in data set [4] (setting [8]) and in data set [4] (setting [9]) were 0.3, 0.4 and 0.5, respectively. In addition, the entries for the “Enantioseparation (Rs) of Butylone” value in data set [5] (setting [7]), in data set [5] (setting [8]) and in data set [5] (setting [9]) were 0.6, 0.3 and 0.4, respectively. Moreover, the results for the “Enantioseparation (Rs) of MDPV” value in data set [6] (setting [7]), in data set [6] (setting [8]) and in data set [6] (setting [9]) were 1.6, 2.1 and 3.5, respectively.

As to sulfated-β-CD [S-β-CD], the “4-MEC maximal enantioresolution Rs” value in data set [1] is 5.0. In data set [1], the “Mephedrone maximal enantioresolution Rs” value came to 4.8. Also, the “Enantioseparation (Rs) of Flephedrone” value was 0.1 in data set [2] (setting [7]), 0.6 in data set [2] (setting [8]) and 0.9 in data set [2] (setting [9]). Moreover, the entries for the “Enantioseparation (Rs) of Mephedrone” value in data set [3] (setting [7]) and in data set [3] (setting [8]) were 1.6 and 3.1, respectively. Also, the “Enantioseparation (Rs) of 4-MEC” value in data set [4] (setting [7]) was 1.9; in data set [4] (setting [8]), 4.2. Moreover, the “Enantioseparation (Rs) of Butylone” value in data set [5] (setting [7]) is 0.5. In addition, in data set [6] (setting [7]), the “Enantioseparation (Rs) of MDPV” value is 0.6.

Take `CC(=O)O[C@@H]1[C@@H](OC(C)=O)[C@H]2O[C@H]3[C@H](OC(C)=O)[C@@H](OC(C)=O)[C@@H](O[C@H]4[C@H](OC(C)=O)[C@@H](OC(C)=O)[C@@H](O[C@H]5[C@H](OC(C)=O)[C@@H](OC(C)=O)[C@@H](O[C@H]6[C@H](OC(C)=O)[C@@H](OC(C)=O)[C@@H](O[C@H]7[C@H](OC(C)=O)[C@@H](OC(C)=O)[C@@H](O[C@H]8[C@H](OC(C)=O)[C@@H](OC(C)=O)[C@@H](O[C@@H]1[C@@H](COS(=O)(=O)O)O2)O[C@@H]8COS(=O)(=O)O)O[C@@H]7COS(=O)(=O)O)O[C@@H]6COS(=O)(=O)O)O[C@@H]5COS(=O)(=O)O)O[C@@H]4COS(=O)(=O)O)O[C@@H]3COS(=O)(=O)O` [HDAS-β-CD, heptakis-(2,3-O-diacethyl, 6-O-sulfo)-β-CD]: the “4-MEC maximal enantioresolution Rs” value in data set [1] is 7.9. In addition, the “Flephedrone maximal enantioresolution Rs” value in data set [1] is on record as 2.8. The “MDPV maximal enantioresolution Rs” value in data set [1] is recorded as 2.3. In addition, in data set [1], the “Mephedrone maximal enantioresolution Rs” value was found to be 8.6. In addition, the “Enantioseparation (Rs) of Flephedrone” value was 5.1 in data set [2] (setting [7]), 13.1 in data set [2] (setting [8]) and 8.0 in data set [2] (setting [9]). The “Enantioseparation (Rs) of Mephedrone” value in data set [3] (setting [7]) turned out to be 2.1; in data set [3] (setting [8]), 6.2; in data set [3] (setting [9]), 8.4. Also, the “Enantioseparation (Rs) of 4-MEC” value in data set [4] (setting [7]) is listed as 2.7; in data set [4] (setting [8]), 7.3; in data set [4] (setting [9]) it was 7.7. Besides, the figures for the “Enantioseparation (Rs) of Butylone” value in data set [5] (setting [7]), in data set [5] (setting [8]) and in data set [5] (setting [9]) were 3.7, 9.5 and 11.4, respectively. The “Enantioseparation (Rs) of MDPV” value in data set [6] (setting [7]) is recorded as 1.4; in data set [6] (setting [8]), 6.1; in data set [6] (setting [9]), 8.5.

With randomly methylated-β-CD [RAME-β-CD], the “Butylone maximal enantioresolution Rs” value in data set [1] is recorded as 0.3. Also, in data set [2] (setting [10]), the “Enantioseparation (Rs) of Flephedrone” value was determined as 0. Besides, the “Enantioseparation (Rs) of Mephedrone” value in data set [3] (setting [10]) is 0. The “Enantioseparation (Rs) of 4-MEC” value in data set [4] (setting [10]) came out at 0. In data set [5] (setting [10]), the “Enantioseparation (Rs) of Butylone” value is given as 0. For the same compound, the “Enantioseparation (Rs) of MDPV” value in data set [6] (setting [10]) is 0.

For the compound `CO[C@@H]1[C@@H](OC)[C@H]2O[C@H]3[C@H](OC)[C@@H](OC)[C@@H](O[C@H]4[C@H](OC)[C@@H](OC)[C@@H](O[C@H]5[C@H](OC)[C@@H](OC)[C@@H](O[C@H]6[C@H](OC)[C@@H](OC)[C@@H](O[C@H]7[C@H](OC)[C@@H](OC)[C@@H](O[C@H]8[C@H](OC)[C@@H](OC)[C@@H](O[C@H]9[C@H](OC)[C@@H](OC)[C@@H](O[C@@H]1[C@@H](COS(=O)(=O)O)O2)O[C@@H]9COS(=O)(=O)O)O[C@@H]8COS(=O)(=O)O)O[C@@H]7COS(=O)(=O)O)O[C@@H]6COS(=O)(=O)O)O[C@@H]5COS(=O)(=O)O)O[C@@H]4COS(=O)(=O)O)O[C@@H]3COS(=O)(=O)O` [ODMS-γ-CD, octakis-(2,3-O-dimethyl, 6-O-sulfo)-γ-CD], the “4-MEC maximal enantioresolution Rs” value in data set [1] is reported as 1.7. The “Butylone maximal enantioresolution Rs” value in data set [1] was 1.6. In addition, the “Flephedrone maximal enantioresolution Rs” value in data set [1] worked out at 1.1. Moreover, the “MDPV maximal enantioresolution Rs” value in data set [1] was found to be 0.9. In data set [1], the “Mephedrone maximal enantioresolution Rs” value is recorded as 2.5. Also, the “Enantioseparation (Rs) of Flephedrone” value in data set [2] (setting [7]) was 0.8; in data set [2] (setting [8]) it was 2.2; in data set [2] (setting [9]), 3.3. Moreover, the entries for the “Enantioseparation (Rs) of Mephedrone” value in data set [3] (setting [7]), in data set [3] (setting [8]) and in data set [3] (setting [9]) were 2.2, 5.4 and 7.5, respectively. Moreover, the “Enantioseparation (Rs) of 4-MEC” value was 1.5 in data set [4] (setting [7]), 4.0 in data set [4] (setting [8]) and 5.8 in data set [4] (setting [9]). In addition, the figures for the “Enantioseparation (Rs) of Butylone” value in data set [5] (setting [7]), in data set [5] (setting [8]) and in data set [5] (setting [9]) were 1.1, 2.9 and 4.4, respectively. The “Enantioseparation (Rs) of MDPV” value in data set [6] (setting [7]) was found to be 0; in data set [6] (setting [8]) it was 1.5; in data set [6] (setting [9]), 2.7.
